Where “and” joins values, the source holds several entries; their conditions need not be identical. Equal entries are not always repeated. At least one compound was matched to its structure with a doubt left.
How the values were obtained:
Assay in all cases: Time-kill curves
Type in all cases: cell-based
E. coli ATCC 25922 = settings: first four hours, E. coli ATCC25922, listed as MCB
E. coli GNS-2601 = settings: first four hours, E. coli GNS2601
E. coli NRZ-00302 = settings: first four hours; single agent at 2x its MIC; E. coli NRZ00302
E. coli NRZ-00401 = settings: first four hours; single agent at 2x its MIC; E. coli NRZ00401

CC(=O)NC[C@H]1CN(c2ccc(OCC3(O)CCN(c4cc5c(cc4F)c(=O)c(C(=O)O)cn5C4CC4)CC3)c(F)c2)C(=O)O1 [Compound 1, 7-(4-{4-[(5S)-5-(acetylamino-methyl)-2-oxo-oxazolidin-3-yl]-2-fluoro-phenoxymethyl}-4-hydroxy-piperidin-1-yl)-1-cyclopropyl-6-fluoro-4-oxo-1,4-dihydro-quinoline-3-carboxylic acid]
growth- and kill rates k ('+' = growth, unmarked = kill rate) (E. coli ATCC 25922; single agent at 1x its MIC): 0.82 h⁻¹ and 0.74 h⁻¹ | growth- and kill rates k ('+' = growth, unmarked = kill rate) (E. coli ATCC 25922; single agent at 2x its MIC): 1.35 h⁻¹ and 1.62 h⁻¹ | growth- and kill rates k ('+' = growth, unmarked = kill rate) (E. coli GNS-2601; single agent at 1x its MIC): +0.43 h^−1 | growth- and kill rates k ('+' = growth, unmarked = kill rate) (E. coli GNS-2601; single agent at 2x its MIC): +0.35 h^−1 | growth- and kill rates k ('+' = growth, unmarked = kill rate) (E. coli NRZ-00302): +0.25 h^−1 | growth- and kill rates k ('+' = growth, unmarked = kill rate) (E. coli NRZ-00401): 0.25 h⁻¹

Source: patent US20160113921A1, “COMBINATION THERAPY COMPRISING OXAZOLIDINONE-QUINOLONES FOR USE IN TREATING BACTERIAL INFECTIONS” (MORPHOCHEM AKTIENGESELLSCHAFT FÜR KOMBINATORISCHE CHEMIE, priority 2013, published 2016)
